Reference: patent publication US8802405B2, “Ethanologenic Clostridium species, Clostridium coskatii” (Coskata, Inc., priority 2010, dated 2014)
At least one compound was matched to its structure with a doubt left.

What was measured:
Assay in all cases: Growth on various substrates (carbon substrate utilization)
Conditions in all cases: 1 g/L carbon source, N2:CO2 (80%:20%), OD600
C. ljungdahlii PETC = format: cell-based, Clostridium ljungdahlii PETC
Procedure: (§1) Growth was measured spectrophotometrically at 600 nm (Spectronic 20D; Milton Roy). Carbon substrate utilization was based upon growth after consecutive transfers in media containing 1 g/L of each carbon source. For carbon substrates, screening was performed under an atmosphere of N2: CO2 (80%:20%). A positive growth response was recorded for an OD600 exceeding 0.2 AU. For citrate, additional ^13C-labeled isotope experiments were conducted to determine the nature of products by analysis of final 0.2 μm-filtered product samples by carbon NMR using a Bruker UltraShield Avance 400 MHz nuclear magnetic resonance spectrometer.

C. ragsdalei = format: cell-based, Clostridium ragsdalei
Procedure: as §1

C. coskatii PS02 = format: cell-based, Clostridium coskatii (PS02)
Procedure: as §1

C. autoethangenum = format: cell-based, Clostridium autoethanogenum
Procedure: as §1

Measured: Growth on substrate

OC[C@H]1O[C@@H](O[C@H]2[C@H](O)[C@@H](O)[C@H](O)O[C@@H]2CO)[C@H](O)[C@@H](O)[C@@H]1O [Cellibiose]
−: all assays above

OC[C@H]1O[C@H](O[C@H]2[C@H](O)[C@@H](O)[C@H](O)O[C@@H]2CO)[C@H](O)[C@@H](O)[C@@H]1O [D-Maltose]
−: all assays above

CC(O)C(=O)[O-].[Na+] (stereo not shown) [Na-Lactate]
−: all assays above

CCC(=O)[O-].[Na+] [Na-Propianate]
−: all assays above
